Reference: PMC7948503, “Optimization of a peptide ligand for the adhesion GPCR ADGRG2 provides a potent tool to explore receptor biology” (The Journal of Biological Chemistry, 2020)
These are yes or no findings as the source states them, for the method shown. In cells and extracts the contact can be indirect. Some results given as binding are weak or reduced against the parent protein; the word gives no strength.

Sequences of proteins named here, by UniProt entry; tags and fusion partners are left off. A change or cut given only in a name is not applied to a line headed by its entry. A line that says so, or that is headed by a name, gives the form on record, which may keep a tag or linker.
ADGRG2 full-length (ADGRG2-FL)-YFP (Q8CJ12, form named): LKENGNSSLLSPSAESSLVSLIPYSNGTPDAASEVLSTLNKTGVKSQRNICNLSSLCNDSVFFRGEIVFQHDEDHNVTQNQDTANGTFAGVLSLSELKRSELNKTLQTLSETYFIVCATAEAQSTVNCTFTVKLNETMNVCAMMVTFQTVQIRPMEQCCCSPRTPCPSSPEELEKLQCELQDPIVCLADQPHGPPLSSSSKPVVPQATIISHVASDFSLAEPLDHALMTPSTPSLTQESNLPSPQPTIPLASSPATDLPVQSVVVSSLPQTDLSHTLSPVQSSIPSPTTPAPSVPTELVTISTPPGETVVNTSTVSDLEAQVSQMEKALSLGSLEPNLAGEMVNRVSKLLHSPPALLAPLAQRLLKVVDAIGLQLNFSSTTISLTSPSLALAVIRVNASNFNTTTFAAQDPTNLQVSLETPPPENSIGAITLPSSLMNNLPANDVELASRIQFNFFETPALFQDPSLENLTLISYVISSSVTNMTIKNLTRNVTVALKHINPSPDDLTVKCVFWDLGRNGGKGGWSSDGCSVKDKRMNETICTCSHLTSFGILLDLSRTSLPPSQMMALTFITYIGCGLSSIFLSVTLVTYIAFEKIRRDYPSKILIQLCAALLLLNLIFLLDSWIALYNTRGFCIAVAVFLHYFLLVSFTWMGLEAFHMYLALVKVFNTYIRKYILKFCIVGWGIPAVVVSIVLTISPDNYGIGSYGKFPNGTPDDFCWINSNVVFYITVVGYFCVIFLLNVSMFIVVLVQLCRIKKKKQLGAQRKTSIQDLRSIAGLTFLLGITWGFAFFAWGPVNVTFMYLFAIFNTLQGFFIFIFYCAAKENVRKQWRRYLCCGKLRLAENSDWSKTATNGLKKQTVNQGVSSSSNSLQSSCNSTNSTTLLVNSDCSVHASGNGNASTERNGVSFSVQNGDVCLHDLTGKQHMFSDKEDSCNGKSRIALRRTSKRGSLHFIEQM
UniProt P32121: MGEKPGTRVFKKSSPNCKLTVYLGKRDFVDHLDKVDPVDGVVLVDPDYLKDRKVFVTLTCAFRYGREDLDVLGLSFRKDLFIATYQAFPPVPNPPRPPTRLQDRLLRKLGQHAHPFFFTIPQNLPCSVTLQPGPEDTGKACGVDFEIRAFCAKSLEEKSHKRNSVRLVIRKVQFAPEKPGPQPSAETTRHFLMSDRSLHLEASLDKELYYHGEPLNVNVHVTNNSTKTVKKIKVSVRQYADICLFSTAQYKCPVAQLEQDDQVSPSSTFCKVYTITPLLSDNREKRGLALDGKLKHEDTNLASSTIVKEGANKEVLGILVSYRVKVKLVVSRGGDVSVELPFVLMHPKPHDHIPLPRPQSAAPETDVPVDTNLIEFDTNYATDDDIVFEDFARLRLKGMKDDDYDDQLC
UniProt P49407: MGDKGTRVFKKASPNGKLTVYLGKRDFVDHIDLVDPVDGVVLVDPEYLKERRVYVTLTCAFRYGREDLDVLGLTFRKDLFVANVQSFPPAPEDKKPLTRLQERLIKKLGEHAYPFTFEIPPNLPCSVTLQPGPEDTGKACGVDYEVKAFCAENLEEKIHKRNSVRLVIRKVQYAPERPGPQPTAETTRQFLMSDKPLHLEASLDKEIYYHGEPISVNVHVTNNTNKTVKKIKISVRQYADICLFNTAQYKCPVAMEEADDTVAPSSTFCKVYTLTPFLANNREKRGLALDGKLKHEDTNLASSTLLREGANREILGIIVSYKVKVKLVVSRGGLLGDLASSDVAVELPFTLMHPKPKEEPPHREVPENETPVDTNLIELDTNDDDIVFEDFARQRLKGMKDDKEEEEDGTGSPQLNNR

Biological target: ADGRG2 full-length (ADGRG2-FL)-YFP (mouse) (UniProt Q8CJ12)
Assay: FRET or BRET; HEK293 cells transiently transfected with ADGRG2-YFP and β-arrestin1-Rluc or β-arrestin2-Rluc; cells in PBS with 0.1% glucose at room temperature, in the presence or absence of ADGRG2 Stachel peptides (p15, VPM-p15) for 1 min; coelenterazine 400a

| Substance | binding |
| --- | --- |
| β-arrestin2-Rluc (from UniProt P32121 1-409) | binds |
| β-arrestin1-Rluc (from UniProt P49407 1-418) | binds |
